Measured values from the supplement of paper PMC5407854, “Inhibitor of ppGalNAc-T3-mediated O-glycosylation blocks cancer cell invasiveness and lowers FGF23 levels” (eLife, 2017).
This is one part of the list. Most entries show no effect beyond the scatter of the controls.

The molecules below were run on ppGalNAc-T3 sensor (assay: T3 sensor activation Q score (MG/GFP ratio z-score vs DMSO controls) (SD units); higher = more sensor activation (inhibition of ppGalNAc-T3 glycosylation)). Conditions: HEK293 sensor cells; 10 µM; 6 h.
Protocol: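 Cells were treated with compound at 10 uM for 6 h, then MG/GFP ratio was read by flow cytometry (10,000 cells per well, duplicate wells). Q = (R - R_neg)/SD_neg relative to DMSO vehicle controls; the signal rises when the glycosyltransferase is inhibited.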

| SMILES | T3 sensor activation Q score |
| --- | --- |
| O=S(=O)(c1ccccc1)N1CCN(Cc2ccc(F)cc2)CC1 | -0.755 |
| CN(C)c1ccc(-c2ccncc2)cc1 | -0.025 |
| Cc1cccc(N2CCN(Cc3ccc(Br)o3)CC2)c1C | -0.295 |
| O=C(Nc1ccc(-c2ccc([N+](=O)[O-])cc2)cc1)c1ccc(F)cc1 | -0.02 |
| CCOc1ccc(CN(C)C2CCN(C)CC2)cc1 | 0.16 |
| CC(C)c1ccc(NC(=O)c2ccc(Cl)cc2)cc1 | -0.33 |
| CC(=O)C1=C(O)C(=O)N(c2cccc(C)c2)C1c1ccccc1 (centres undefined) | -0.72 |
| CCN(CC)C(=O)C1CCCN(Cc2ccc(Cl)cc2)C1 (centres undefined) | -0.115 |
| COc1cc(NS(=O)(=O)c2ccc(NC(C)=O)cc2)c(OC)cc1Cl | -0.16 |
| O=C1CC(N2CCCc3ccccc32)C(=O)N1c1ccccc1 (centres undefined) | -0.825 |
| CC1(C)NC(C(=O)O)Cc2c1[nH]c1ccccc21 (centres undefined) | 0.735 |
| Cc1ccccc1NC1=C(N)C(=O)c2ccccc2C1=O | -0.285 |
| CN1CCN(C/C=C/c2ccccc2[N+](=O)[O-])CC1 | 0.32 |
| COc1ccc(C(=O)Nc2ccccc2)cc1N | -0.265 |
| CN(Cc1ccccc1)Cc1ccccc1 | 2.65 |
| O=[N+]([O-])c1ccc(CN2CCN(Cc3ccccc3)CC2)o1 | 0.25 |
| Fc1cccc(CN2CCc3c([nH]c4ccccc34)C2)c1 | 0.11 |
| CN1C(=O)CC(N2CCN(Cc3ccccc3)CC2)C1=O (centres undefined) | 0.505 |
| CC(=O)c1ccc(NC(=O)CN2CCCCC2)cc1 | 0.58 |
| Clc1cccc(CN2CCc3ccccc3C2)c1Cl | 0.4 |

Of the compounds above, two contain sulfur:

| SMILES | T3 sensor activation Q score |
| --- | --- |
| O=S(=O)(c1ccccc1)N1CCN(Cc2ccc(F)cc2)CC1 | -0.755 |
| COc1cc(NS(=O)(=O)c2ccc(NC(C)=O)cc2)c(OC)cc1Cl | -0.16 |

(listing goes on)

| SMILES | T3 sensor activation Q score |
| --- | --- |
| COc1ccc(Nc2cc(-n3cccn3)ncn2)cc1 | 0.08 |
| O=C(c1ccc([N+](=O)[O-])cc1Cl)N1CCOCC1 | 0.945 |
| CCOC(=O)N1CCN(Cc2cccc(F)c2)CC1 | 0.595 |
| CC(=O)c1ccc(N2CCN(C(=O)c3ccccc3F)CC2)c(F)c1 | 1.08 |
| CC1CCCN(CC(O)COc2ccc(Cl)cc2)C1 (centres undefined) | -0.06 |
| CC(=O)Nc1ccc(NC(C)=O)cc1 | -0.535 |
| COc1ccc(O)c(CN2CCCC(C)C2)c1 (centres undefined) | 0.25 |
| CCCN(CCO)Cc1ccccc1 | -0.465 |
| COc1ccccc1CNC(=O)c1ccccc1OC | 0.53 |
| O=C(CN1CCCC1)N1c2ccccc2C=Cc2ccccc21 | 0.495 |
| O=C(NCCCCc1ccccc1)c1ccc(Br)cc1 | 0.465 |
| Nc1ccc(Sc2nc3ccccc3s2)c(Cl)c1 | -0.18 |
| Brc1ccc2[nH]c3c(c2c1)CCCC3NCc1ccccc1 (centres undefined) | 0.89 |
| CCOc1ccc(CN2CCN(c3ccccc3OCC)CC2)cc1 | 0.09 |
| COc1ccc(-n2c(C)c([N+](=O)[O-])c3ccc(O)cc32)cc1 | 0.19 |
| CN1CCCN(Cc2ccccc2F)CC1 | 1.1 |
| O=C(Nc1ccccc1Oc1ccccc1)C1CCCC1 | -0.405 |
| CCn1c(=N)n(CCO)c2ccccc21 | 0.35 |
| COc1cccc(CN2CCSCC2)c1 | 0.15 |
